Measured values published in the supplement of paper PMC10849652.
Some of the results follow.

By UniProt entry, the sequences of proteins in these tests, tags left out. Where a name states a change or a piece, a line headed by the entry shows the natural chain unless it says otherwise.
UniProt Q9BZK7: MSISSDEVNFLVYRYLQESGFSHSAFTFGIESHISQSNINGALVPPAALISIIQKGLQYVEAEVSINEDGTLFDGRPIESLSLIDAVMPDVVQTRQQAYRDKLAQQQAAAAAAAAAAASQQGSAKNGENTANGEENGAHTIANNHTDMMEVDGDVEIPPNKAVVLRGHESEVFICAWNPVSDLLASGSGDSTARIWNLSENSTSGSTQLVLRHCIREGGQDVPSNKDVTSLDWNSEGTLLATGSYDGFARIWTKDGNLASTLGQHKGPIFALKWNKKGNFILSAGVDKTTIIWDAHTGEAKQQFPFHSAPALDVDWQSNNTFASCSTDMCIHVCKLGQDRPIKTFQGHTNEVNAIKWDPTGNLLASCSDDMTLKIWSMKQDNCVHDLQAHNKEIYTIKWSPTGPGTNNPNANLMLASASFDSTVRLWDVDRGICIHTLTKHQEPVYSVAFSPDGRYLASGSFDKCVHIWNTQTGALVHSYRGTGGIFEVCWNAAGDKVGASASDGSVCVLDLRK
UniProt Q96BS2: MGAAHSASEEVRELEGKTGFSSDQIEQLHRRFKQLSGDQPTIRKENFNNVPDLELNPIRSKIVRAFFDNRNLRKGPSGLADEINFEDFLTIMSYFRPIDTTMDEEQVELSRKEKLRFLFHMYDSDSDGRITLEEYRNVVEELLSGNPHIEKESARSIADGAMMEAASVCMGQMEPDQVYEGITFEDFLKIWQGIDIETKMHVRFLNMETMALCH
UniProt Q9NUW8, whole entry, looked up: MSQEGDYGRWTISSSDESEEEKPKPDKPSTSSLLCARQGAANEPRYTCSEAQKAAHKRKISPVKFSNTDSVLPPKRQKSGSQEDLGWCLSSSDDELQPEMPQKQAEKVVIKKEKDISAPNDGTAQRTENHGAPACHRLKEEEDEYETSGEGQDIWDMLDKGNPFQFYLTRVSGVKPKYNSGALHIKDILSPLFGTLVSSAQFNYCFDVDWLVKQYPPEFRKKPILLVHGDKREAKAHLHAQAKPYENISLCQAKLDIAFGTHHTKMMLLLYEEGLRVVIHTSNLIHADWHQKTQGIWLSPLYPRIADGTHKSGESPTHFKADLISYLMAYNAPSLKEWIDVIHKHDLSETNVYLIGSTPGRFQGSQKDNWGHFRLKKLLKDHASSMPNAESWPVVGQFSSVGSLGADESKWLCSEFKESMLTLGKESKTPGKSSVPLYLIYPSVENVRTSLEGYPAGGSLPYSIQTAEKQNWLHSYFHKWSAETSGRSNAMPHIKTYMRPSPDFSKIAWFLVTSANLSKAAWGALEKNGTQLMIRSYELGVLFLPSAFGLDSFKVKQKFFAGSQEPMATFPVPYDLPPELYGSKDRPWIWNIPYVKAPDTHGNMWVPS
UniProt P01137, whole entry, looked up: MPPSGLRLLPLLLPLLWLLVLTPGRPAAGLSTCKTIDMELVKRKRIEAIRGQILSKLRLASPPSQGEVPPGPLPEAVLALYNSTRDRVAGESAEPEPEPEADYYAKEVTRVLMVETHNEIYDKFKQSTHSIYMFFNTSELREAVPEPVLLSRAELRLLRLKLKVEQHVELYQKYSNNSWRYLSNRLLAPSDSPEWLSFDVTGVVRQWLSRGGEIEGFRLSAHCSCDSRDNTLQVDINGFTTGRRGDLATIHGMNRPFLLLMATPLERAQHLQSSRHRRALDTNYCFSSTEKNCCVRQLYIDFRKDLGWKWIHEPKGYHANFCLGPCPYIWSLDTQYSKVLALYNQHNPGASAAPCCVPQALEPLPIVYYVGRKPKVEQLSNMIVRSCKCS

Key:
Assay in all cases: log2 fold change, soluble protein after heating vs DMSO (PISA); higher = thermal stabilisation; K562 lysate, 10 uM; active = over 0.2 and 3.5 SD of the protein, either way, in both replicates (recomputed)
vemurafenib = compound: CCCS(=O)(=O)Nc1ccc(F)c(C(=O)c2c[nH]c3ncc(-c4ccc(Cl)cc4)cc23)c1F [vemurafenib]
Method in brief: (§1)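 A 30 min treatment with 10 μM compound was applied to crude K562 extract at 1 mg/mL protein in PBS pH 7.4 with 1 mM MgCl2. Heating for 3 min spanned 48°C-58°C, after which aliquots were pooled, adjusted to 0.5% NP-40 at 4°C and spun at 21,000xg for 90 min. TMTpro 16plex LC-MS/MS of the supernatant, with channel sums equalised, gave values recorded as log-two fold change in thermal stability against solvent controls, from duplicates.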

[1] = compound: CCCS(=O)(=O)Nc1ccc(F)c(C(=O)c2c[nH]c3ncc(Cl)cc23)c1F
Method in brief: as §1

barasertib = compound: CCN(CCCOc1ccc2c(Nc3cc(CC(=O)Nc4cccc(F)c4)[nH]n3)ncnc2c1)CCOP(=O)(O)O [barasertib]
Method in brief: as §1

[2] = compound: CC[C@@H]1C(=O)N(C)c2cnc(Nc3ccc(C(=O)NC4CCN(C)CC4)cc3OC)nc2N1C1CCCC1
Method in brief: as §1

volasertib = compound: CC[C@@H]1C(=O)N(C)c2cnc(Nc3ccc(C(=O)N[C@H]4CC[C@H](N5CCN(CC6CC6)CC5)CC4)cc3OC)nc2N1C(C)C [volasertib]
Method in brief: as §1

[3] = compound: CCn1c(C(=O)N(C2CC2)C2CC2)cc2c3c(ncn3C)c(Nc3cc(C)n(C)n3)nc21
Method in brief: as §1

[4] = compound: CCn1cc(-c2ccnc3[nH]c(-c4cccc(CN(C)C)c4)cc23)c(-c2ccc(NC(=O)N(C)C)cc2)n1
Method in brief: as §1

[5] = compound: CN1CCC(CNc2ccc3ncc(-c4cccc(OC(F)(F)F)c4)n3n2)CC1
Method in brief: as §1

saracatinib = compound: CN1CCN(CCOc2cc(OC3CCOCC3)c3c(Nc4c(Cl)ccc5c4OCO5)ncnc3c2)CC1 [saracatinib]
Method in brief: as §1

sotrastaurin = compound: CN1CCN(c2nc(C3=C(c4c[nH]c5ccccc45)C(=O)NC3=O)c3ccccc3n2)CC1 [sotrastaurin]
Method in brief: as §1

alvocidib = compound: CN1CC[C@H](c2c(O)cc(O)c3c(=O)cc(-c4ccccc4Cl)oc23)[C@H](O)C1 [alvocidib]
Method in brief: as §1

Tubastatin A = compound: CN1CCc2c(c3ccccc3n2Cc2ccc(C(=O)NO)cc2)C1 [Tubastatin A]
Method in brief: as §1

[6] = compound: CNC(=O)C1=CC=CC=C1NC2=NC(=NC=C2Cl)NC3=C(C=C(C=C3)N4CCOCC4)OC
Method in brief: as §1

defactinib = compound: CNC(=O)c1ccc(Nc2ncc(C(F)(F)F)c(NCc3nccnc3N(C)S(C)(=O)=O)n2)cc1 [defactinib]
Method in brief: as §1

[7] = compound: CNc1nc(-c2ccc3c(N)n[nH]c3c2)cc(N2C[C@@H](C(=O)NC3CCCCC3)CC[C@H]2C)n1
Method in brief: as §1

encorafenib = compound: COC(=O)N[C@@H](C)CNc1nccc(-c2cn(C(C)C)nc2-c2cc(Cl)cc(NS(C)(=O)=O)c2F)n1 [encorafenib]
Method in brief: as §1

[8] = compound: COC(=O)[C@H](CCSC)NC(=O)C1=C(C=C(C=C1)NC[C@H](CS)N)C2=CC=CC=C2
Method in brief: as §1

alisertib = compound: COc1cc(Nc2ncc3c(n2)-c2ccc(Cl)cc2C(c2c(F)cccc2OC)=NC3)ccc1C(=O)O [alisertib]
Method in brief: as §1

[9] = compound: COc1cc2nc(-c3cc(F)ccc3O)nc(N[C@@H]3CNC[C@H]3C(C)(C)O)c2cc1OC
Method in brief: as §1

gefitinib = compound: COc1cc2ncnc(Nc3ccc(F)c(Cl)c3)c2cc1OCCCN1CCOCC1 [gefitinib]
Method in brief: as §1

Target	log2 fold change (vemurafenib)	log2 fold change [1]	log2 fold change (barasertib)	log2 fold change [2]	log2 fold change (volasertib)	log2 fold change [3]	log2 fold change [4]	log2 fold change [5]	log2 fold change (saracatinib)	log2 fold change (sotrastaurin)	log2 fold change (alvocidib)	log2 fold change (Tubastatin A)	log2 fold change [6]	log2 fold change (defactinib)	log2 fold change [7]	log2 fold change (encorafenib)	log2 fold change [8]	log2 fold change (alisertib)	log2 fold change [9]	log2 fold change (gefitinib)
TBL1XR1 (UniProt Q9BZK7)	inactive: 0.026	inactive: 0.052	inactive: 0.041	inactive: 0.016	inactive: 0.035	inactive: -0.035	inactive: 0.171	inactive: 0.011	inactive: -0.014	inactive: -0.005	inactive: -0.02	inactive: 0.055	inactive: 0.05	inactive: 0.014	inactive: -0.008	inactive: 0.025	inactive: -0.028	inactive: -0.047	inactive: 0.035	inactive: -0.028
TESC (UniProt Q96BS2)	inactive: 0.045	inactive: 0.029	active: 0.291	inactive: 0.047	inactive: 0.036	inactive: -0.004	inactive: 0.109	inactive: -0.023	inactive: 0.063	inactive: 0.012	inactive: -0.037	inactive: 0.022	inactive: -0.008	inactive: -0.007	inactive: -0.034	inactive: 0.033	inactive: -0.037	inactive: -0.053	inactive: -0.058	inactive: 0.091
TDP1 (UniProt Q9NUW8)	inactive: -0.026	inactive: -0.015	inactive: -0.01	inactive: -0.07	inactive: -0.033	inactive: 0.004	inactive: -0.099	inactive: 0.041	inactive: 0.015	inactive: 0.046	inactive: 0.011	inactive: 0.072	inactive: 0.102	inactive: -0.009	inactive: 0.009	inactive: -0.161	inactive: 0.061	inactive: -0.043	inactive: 0.012	–
TGFB1 (UniProt P01137)	inactive: 0.001	inactive: 0.012	inactive: -0.043	inactive: 0.011	inactive: 0.027	inactive: 0.02	inactive: -0.123	inactive: 0.039	inactive: 0.022	inactive: 0.031	inactive: -0.034	inactive: 0.024	inactive: 0.014	inactive: 0.003	inactive: -0.011	inactive: -0.002	inactive: -0.019	inactive: -0.042	inactive: -0.004	inactive: -0.007
